A short description of series [1]: general procedure: Fmoc solid-phase peptide synthesis; Wang resin. Particulars: whole synthesis, trifluoroacetate.
The nature of series [2]: general procedure: Fmoc solid-phase peptide synthesis; 2-Cl-Trt resin. Particulars: whole synthesis, trifluoroacetate.
[3] abbreviates: analytical liquid chromatography, scale of the general procedure 0.5 Kg of Fmoc-Leu-Wang resin.

The star is where a group is joined. Fmoc = O=C(OCC1c2ccccc2-c2ccccc21)*

“D-Phe-Pro-Arg-Pro-Gly-Gly-Gly-Gly-Asn-Gly-Asp-Phe-Glu-Glu-Ile-Pro-Glu-Glu-Tyr-Leu-OH”: in series [1] (setting [3]), the “final HPLC purity” value is recorded as 99.8%. This substance came in with an isolated yield in series [1] (total yield, scale of the general procedure 0.5 Kg of Fmoc-Leu-Wang resin) of 55.8%. This substance registered an isolated mass in series [1] of 608 g.

Regarding Fmoc-GGGG-OH, the “crude purity (method not given)” value in series [2] (setting [3]) is 98.3%. Also, in series [2] (scale of the general procedure 0.5 Kg of Fmoc-Leu-Wang resin), the crude yield is recorded as 97.2%. In series [2], this substance came in with a crude mass of 457 g.

(Values after US20140187745 (published 2014).)
